From patent publication US20150299708, “CD133 APTAMERS FOR DETECTION OF CANCER STEM CELLS” (Deakin University, published 2015)
At least one result comes from cells or an extract, where the contact may be indirect. Where a protein sequence is shown, tags need not be part of it.

Target: T1, CD133 (prominin-1) (Homo sapiens) (UniProt O43490)
T1 sequence (looked up, limits assumed): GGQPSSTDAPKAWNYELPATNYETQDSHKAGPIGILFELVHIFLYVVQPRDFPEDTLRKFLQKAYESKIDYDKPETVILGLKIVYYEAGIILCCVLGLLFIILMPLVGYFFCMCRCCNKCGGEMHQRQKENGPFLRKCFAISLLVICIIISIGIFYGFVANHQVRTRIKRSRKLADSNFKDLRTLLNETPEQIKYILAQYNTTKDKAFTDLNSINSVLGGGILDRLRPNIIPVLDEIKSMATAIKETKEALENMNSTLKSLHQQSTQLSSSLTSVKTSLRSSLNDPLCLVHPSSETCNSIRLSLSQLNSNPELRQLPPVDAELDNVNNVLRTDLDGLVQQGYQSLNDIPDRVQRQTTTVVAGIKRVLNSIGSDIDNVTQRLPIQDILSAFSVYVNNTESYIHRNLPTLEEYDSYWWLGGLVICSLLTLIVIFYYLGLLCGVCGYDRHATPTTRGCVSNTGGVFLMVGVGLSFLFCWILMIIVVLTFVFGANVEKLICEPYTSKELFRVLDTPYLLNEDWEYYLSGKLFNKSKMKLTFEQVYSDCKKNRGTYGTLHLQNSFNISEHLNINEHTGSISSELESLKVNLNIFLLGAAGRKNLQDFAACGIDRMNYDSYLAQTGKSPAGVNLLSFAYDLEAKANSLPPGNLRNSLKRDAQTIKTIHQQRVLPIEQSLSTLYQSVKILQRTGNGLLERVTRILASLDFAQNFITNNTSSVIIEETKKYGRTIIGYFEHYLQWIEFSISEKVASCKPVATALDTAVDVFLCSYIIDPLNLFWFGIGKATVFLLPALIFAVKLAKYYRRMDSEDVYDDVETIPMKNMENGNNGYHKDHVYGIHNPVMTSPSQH
Assay: flow cytometry
Conditions: 2'-F pyrimidines, protein on the cell surface, label: 3'-FITC

[1] = truncated clone, variant of CD133-1

Sequence | binding result [1] | further results
CCACCCUCCUACAUAGGGUGG [CD133-1-2-1] | binds | 
GAGACAAGAAUAAACGCUCAACCCACCCUCCUACAUAGGGAGGAACGAGUUACUAUAG [CD133-1-1] | binds | 
GAGACAAGAAUAAACGCUCAACCCACCCUCCUACAUAGGGAGGAACGAGUUACUAUAGAGCUUCGACAGGAGGCUCACAAC [CD133-1] |  | binding result (transfected vs non-transfected HEK293T, Kd not given, on ice, DPBS + MgCl2): binds
GAGACAAGAAUAAACGCUCAAGGAAAGCGCUUAUUGUUUGCUAUGUUAGAACGUAUACUAUUUCGACAGGAGGCUCACAACAGGC [CD133-2] |  | binding result (transfected vs non-transfected HEK293T, truncation to CD133-2-1 reduced Kd, on ice): binds
GCUCAACCCACCCUCCUACAUAGGGAGGAACGAGU [CD133-1-2] | binds | 
